# From the supplement of paper PMC8728848
# The list shows a part of the results.
# Legend:
# Assay in all cases: glycan array binding signal (z-score within array); higher = stronger binding
# Details in all cases: glycan notation: IUPAC condensed, linker removed
# [1] = target: Gal(b1-4)GlcNAc(b1-2)[Gal(b1-4)GlcNAc(b1-4)]Man(a1-3)[GlcNAc(b1-4)][Gal(b1-4)GlcNAc(b1-2)Man(a1-6)]Man(b1-4)GlcNAc(b1-4)GlcNAc
# How it was run: (§1)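 The Consortium for Functional Glycomics database supplied 3228 glycan arrays, of which those lacking an available protein sequence were dropped. The binding signal, a within-array Z-score, was averaged across arrays of the same protein sequence and across linkers. Negative scores can be read as non-binding.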
# [2] = target: Gal(b1-4)GlcNAc(b1-2)[Gal(b1-4)GlcNAc(b1-4)]Man(a1-3)[GlcNAc(b1-4)][Gal(b1-4)GlcNAc(b1-2)[Gal(b1-4)GlcNAc(b1-6)]Man(a1-6)]Man(b1-4)GlcNAc(b1-4)GlcNAc
# How it was run: as §1
# [3] = target: Gal(b1-4)GlcNAc(b1-2)[Gal(b1-4)GlcNAc(b1-4)]Man(a1-3)[GlcNAc(b1-4)][Gal(b1-4)GlcNAc(b1-2)[Gal(b1-4)GlcNAc(b1-6)]Man(a1-6)]Man(b1-4)GlcNAc(b1-4)[Fuc(a1-6)]GlcNAc
# How it was run: as §1
# [4] = target: Gal(b1-4)GlcNAc(b1-2)[Gal(b1-4)GlcNAc(b1-6)]Man(a1-6)[Gal(b1-4)GlcNAc(b1-2)Man(a1-3)]Man(b1-4)GlcNAc(b1-4)GlcNAc
# How it was run: as §1
# [5] = target: Gal(b1-4)GlcNAc(b1-2)[Gal(b1-4)GlcNAc(b1-6)]Man(a1-6)[Gal(b1-4)GlcNAc(b1-2)Man(a1-3)]Man(b1-4)GlcNAc(b1-4)[Fuc(a1-6)]GlcNAc
# How it was run: as §1
# [6] = target: Gal(b1-4)GlcNAc(b1-2)[Gal(b1-4)GlcNAc(b1-6)]Man(a1-6)[GlcNAc(b1-4)][Gal(b1-4)GlcNAc(b1-2)Man(a1-3)]Man(b1-4)GlcNAc(b1-4)GlcNAc
# How it was run: as §1
# [7] = target: Gal(b1-4)GlcNAc(b1-3)Gal(b1-3)GlcNAc
# How it was run: as §1
# [8] = target: Gal(b1-4)GlcNAc(b1-3)Gal(b1-4)Glc
# How it was run: as §1
# [9] = target: Gal(b1-4)GlcNAc(b1-3)Gal(b1-4)GlcNAc
# How it was run: as §1
# [10] = target: Gal(b1-4)GlcNAc(b1-3)Gal(b1-4)GlcNAc(b1-3)Gal(b1-4)GlcNAc
# How it was run: as §1
# [11] = target: Gal(b1-4)GlcNAc(b1-3)Gal(b1-4)[Fuc(a1-3)GlcNAc(b1-6)]Gal(b1-4)Glc
# How it was run: as §1
# [12] = target: Gal(b1-4)GlcNAc(b1-3)Gal(b1-4)[Fuc(a1-3)]GlcNAc(b1-3)Gal(b1-4)[Fuc(a1-3)]GlcNAc
# How it was run: as §1
# [13] = target: Gal(b1-4)GlcNAc(b1-3)GalNAc
# How it was run: as §1
# [14] = target: Gal(b1-4)GlcNAc(b1-3)[Gal(b1-4)GlcNAc(b1-6)]Gal(b1-4)GlcNAc
# How it was run: as §1
# [15] = target: Gal(b1-4)GlcNAc(b1-3)[Gal(b1-4)GlcNAc(b1-6)]GalNAc
# How it was run: as §1
# [16] = target: Gal(b1-4)GlcNAc(b1-3)[GlcNAc(b1-6)]Gal(b1-4)GlcNAc
# How it was run: as §1
# [17] = target: Gal(b1-4)GlcNAc(b1-6)Gal(b1-4)GlcNAc
# How it was run: as §1
# [18] = target: Gal(b1-4)GlcNAc(b1-6)GalNAc
# How it was run: as §1
# [19] = target: Gal(b1-4)GlcNAc(b1-6)[Gal(b1-3)]GalNAc
# How it was run: as §1
# Gal(b1-4)GlcNAc6P = target: Gal(b1-4)GlcNAc6P
# How it was run: as §1
# Gal(b1-6)Gal = target: Gal(b1-6)Gal
# How it was run: as §1
# Gal3S(b1-3)GalNAc = target: Gal3S(b1-3)GalNAc
# How it was run: as §1
# Gal3S(b1-3)GlcNAc = target: Gal3S(b1-3)GlcNAc
# How it was run: as §1
# [20] = target: Gal3S(b1-3)[Fuc(a1-4)]GlcNAc
# How it was run: as §1
# Gal3S(b1-4)Glc = target: Gal3S(b1-4)Glc
# How it was run: as §1
# Gal3S(b1-4)Glc6S = target: Gal3S(b1-4)Glc6S
# How it was run: as §1
# Gal3S(b1-4)GlcNAc = target: Gal3S(b1-4)GlcNAc
# How it was run: as §1
# Gal3S(b1-4)GlcNAc6S = target: Gal3S(b1-4)GlcNAc6S
# How it was run: as §1
# [21] = target: Gal3S(b1-4)[Fuc(a1-3)]Glc
# How it was run: as §1
# [22] = target: Gal3S(b1-4)[Fuc(a1-3)]Glc6S
# How it was run: as §1
# Gal3S4S(b1-4)GlcNAc = target: Gal3S4S(b1-4)GlcNAc
# How it was run: as §1
# Gal3S6S(b1-4)GlcNAc = target: Gal3S6S(b1-4)GlcNAc
# How it was run: as §1
# Gal3S6S(b1-4)GlcNAc6S = target: Gal3S6S(b1-4)GlcNAc6S
# How it was run: as §1
# Gal4S(b1-4)GlcNAc = target: Gal4S(b1-4)GlcNAc
# How it was run: as §1
# Gal4S6S(b1-4)GlcNAc = target: Gal4S6S(b1-4)GlcNAc
# How it was run: as §1
# Gal6P(b1-4)GlcNAc = target: Gal6P(b1-4)GlcNAc
# How it was run: as §1
# Gal6S(b1-3)GlcNAc = target: Gal6S(b1-3)GlcNAc
# How it was run: as §1
# Gal6S(b1-3)GlcNAc6S = target: Gal6S(b1-3)GlcNAc6S
# How it was run: as §1
# Gal6S(b1-4)Glc = target: Gal6S(b1-4)Glc
# How it was run: as §1
# Gal6S(b1-4)Glc6S = target: Gal6S(b1-4)Glc6S
# How it was run: as §1
# Gal6S(b1-4)GlcNAc = target: Gal6S(b1-4)GlcNAc
# How it was run: as §1
# Gal6S(b1-4)GlcNAc6S = target: Gal6S(b1-4)GlcNAc6S
# How it was run: as §1
# GalNAc(a1-3)Gal = target: GalNAc(a1-3)Gal
# How it was run: as §1
# GalNAc(a1-3)GalNAc = target: GalNAc(a1-3)GalNAc
# How it was run: as §1
# [23] = target: GalNAc(a1-3)GalNAc(b1-3)Gal(a1-4)Gal(b1-4)Glc
# How it was run: as §1
binder,measurement,setting,value
Intelectin-1a (Mus musculus) (protein) AEWSHPQFEKAEENLDTNRWGNSFFSSLPRSCKEIKQEHTKAQDGLYFLRTKNGVIYQTFCDMTTAGGGWTLVASVHENNMRGKCTVGDRWSSQQGNRADYPEGDGNWANYNTFGSAEAATSDDYKNPGYFDIQAENLGIWHVPNKSPLHNWRKSSLLRYRTFTGFLQHLGHNLFGLYKKYPVKYGEGKCWTDNGPALPVVYDFGDARKTASYYSPSGQREFTAGYVQFRVFNNERAASALCAGVRVTGCNTEHHCIGGGGFFPEGNPVQCGDFASFDWDGYGTHNGYSSSRKITEAAVLLFYR,glycan array binding signal (z-score),[1],-0.714
same,glycan array binding signal (z-score),[2],0.325
same,glycan array binding signal (z-score),[3],0.893
same,glycan array binding signal (z-score),[4],-0.153
same,glycan array binding signal (z-score),[5],0.195
same,glycan array binding signal (z-score),[6],0.058
same,glycan array binding signal (z-score),[7],-0.43
same,glycan array binding signal (z-score),[8],-0.53
same,glycan array binding signal (z-score),[9],-0.082
same,glycan array binding signal (z-score),[10],-0.664
same,glycan array binding signal (z-score),[11],-0.013
same,glycan array binding signal (z-score),[12],-0.972
same,glycan array binding signal (z-score),[13],-1.14
same,glycan array binding signal (z-score),[14],0.211
same,glycan array binding signal (z-score),[15],-0.574
same,glycan array binding signal (z-score),[16],1.05
same,glycan array binding signal (z-score),[17],0.3
same,glycan array binding signal (z-score),[18],-0.792
same,glycan array binding signal (z-score),[19],-0.346
same,glycan array binding signal (z-score),Gal(b1-4)GlcNAc6P,0.124
same,glycan array binding signal (z-score),Gal(b1-6)Gal,-0.657
same,glycan array binding signal (z-score),Gal3S(b1-3)GalNAc,-0.527
same,glycan array binding signal (z-score),Gal3S(b1-3)GlcNAc,-0.392
same,glycan array binding signal (z-score),[20],-0.061
same,glycan array binding signal (z-score),Gal3S(b1-4)Glc,-0.304
same,glycan array binding signal (z-score),Gal3S(b1-4)Glc6S,-0.631
same,glycan array binding signal (z-score),Gal3S(b1-4)GlcNAc,-0.181
same,glycan array binding signal (z-score),Gal3S(b1-4)GlcNAc6S,-0.261
same,glycan array binding signal (z-score),[21],1.22
same,glycan array binding signal (z-score),[22],-0.771
same,glycan array binding signal (z-score),Gal3S4S(b1-4)GlcNAc,0.741
same,glycan array binding signal (z-score),Gal3S6S(b1-4)GlcNAc,0.047
same,glycan array binding signal (z-score),Gal3S6S(b1-4)GlcNAc6S,-0.423
same,glycan array binding signal (z-score),Gal4S(b1-4)GlcNAc,-0.354
same,glycan array binding signal (z-score),Gal4S6S(b1-4)GlcNAc,0.272
same,glycan array binding signal (z-score),Gal6P(b1-4)GlcNAc,0.455
same,glycan array binding signal (z-score),Gal6S(b1-3)GlcNAc,-0.506
same,glycan array binding signal (z-score),Gal6S(b1-3)GlcNAc6S,-0.024
same,glycan array binding signal (z-score),Gal6S(b1-4)Glc,-0.261
same,glycan array binding signal (z-score),Gal6S(b1-4)Glc6S,-0.38
same,glycan array binding signal (z-score),Gal6S(b1-4)GlcNAc,-0.621
same,glycan array binding signal (z-score),Gal6S(b1-4)GlcNAc6S,0.26
same,glycan array binding signal (z-score),GalNAc(a1-3)Gal,0.3
same,glycan array binding signal (z-score),GalNAc(a1-3)GalNAc,-0.008
same,glycan array binding signal (z-score),[23],-1.58
